{"source": "PubChem BioAssay AID1259425 (University of Nebraska Medical Center, 2018)", "screen": "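Compare each knockdown with KSR1 silencing using changes in marker transcripts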 (primary screen)", "system": "HCT116 human colon cancer cells", "reagents": "siRNA pool against human genes, 50 nM siRNA", "measurement": "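mRNA of six signature genes measured together by branched-DNA assay after 50 nM siRNA pool, blank removed, divided by geometric mean of two housekeeping genes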", "direction": "BNIP3L mRNA: higher = more BNIP3L transcript after knockdown", "note": "This is a random part of about 14,000 reagents. Not all columns of the deposit are shown. Reagent sequences are not shown. Not given: the time to read-out."}
{"target": "CKS2 (CDC28 protein kinase regulatory subunit 2)", "BNIP3L mRNA, set 1": 0.159}
{"target": "LCT (lactase)", "BNIP3L mRNA, set 1": 0.0874}
{"target": "SNX29 (sorting nexin 29)", "BNIP3L mRNA, set 1": 0.186}
{"target": "GRIK3 (glutamate ionotropic receptor kainate type subunit 3)", "BNIP3L mRNA, set 1": 0.0472}
{"target": "SIM2 (SIM bHLH transcription factor 2)", "BNIP3L mRNA, set 1": 0.0878}
{"target": "ZNF221 (zinc finger protein 221)", "BNIP3L mRNA, set 1": 0.143}
{"target": "MCEE (methylmalonyl-CoA epimerase)", "BNIP3L mRNA, set 1": 0.153}
{"target": "ATL3 (atlastin GTPase 3)", "BNIP3L mRNA, set 1": 0.0568}
{"target": "RASL12 (RAS like family 12)", "BNIP3L mRNA, set 1": 0.217}
{"target": "SORT1 (sortilin 1)", "BNIP3L mRNA, set 1": 0.132}
{"target": "PDCD5 (programmed cell death 5)", "BNIP3L mRNA, set 1": 0.0834}
{"target": "H3C4 (H3 clustered histone 4)", "BNIP3L mRNA, set 1": 0.096}
{"target": "SCN9A (sodium voltage-gated channel alpha subunit 9)", "BNIP3L mRNA, set 1": 0.15}
{"target": "MEX3C (mex-3 RNA binding family member C)", "BNIP3L mRNA, set 1": 0.13}
{"target": "SEMG2 (semenogelin 2)", "BNIP3L mRNA, set 1": 0.127}
{"target": "NCR2 (natural cytotoxicity triggering receptor 2)", "BNIP3L mRNA, set 1": 0.218}
{"target": "CCNE1 (cyclin E1)", "BNIP3L mRNA, set 1": 0.0879}
{"target": "ZNF419 (zinc finger protein 419)", "BNIP3L mRNA, set 1": 0.106}
{"target": "ELMO2 (engulfment and cell motility 2)", "BNIP3L mRNA, set 1": 0.0546}
{"target": "ALPK3 (alpha kinase 3)", "BNIP3L mRNA, set 1": 0.0915}
{"target": "AHCTF1 (AT-hook containing transcription factor 1)", "BNIP3L mRNA, set 1": 0.0878}
{"target": "PDE6C (phosphodiesterase 6C)", "BNIP3L mRNA, set 1": 0.126}
{"target": "FAT1 (FAT atypical cadherin 1)", "BNIP3L mRNA, set 1": 0.0731}
{"target": "OR2M4 (olfactory receptor family 2 subfamily M member 4)", "BNIP3L mRNA, set 1": 0.0755}
{"target": "IMPA2 (inositol monophosphatase 2)", "BNIP3L mRNA, set 1": 0.116}
{"target": "HOXB6 (homeobox B6)", "BNIP3L mRNA, set 1": 0.126}
{"target": "AP5S1 (adaptor related protein complex 5 subunit sigma 1)", "BNIP3L mRNA, set 1": 0.096}
{"target": "PCP4 (Purkinje cell protein 4)", "BNIP3L mRNA, set 1": 0.0638}
